PubChem BioAssay AID1259308 – NCATS, 2017
Aim: 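Candidate targets for better recombinant protein yield in mammalian cells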 (primary screen). System: human HEK293 embryonic kidney cells stably expressing firefly luciferase (HEK-CMV-Luc2-Hygro). Reagents: single siRNA against human genes, 0.8 pmol siRNA per well. Time to read-out: 72 h. Read-out: 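Luciferase light (ONE-Glo) measured on one replicate plate set and viability (CellTiter-Glo) on the other, scaled to a negative control siRNA, with robust z-scores and luciferase per cell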. Direction: total luciferase, z-score and total luciferase, % of control: higher = more reporter protein produced; luciferase per cell, z-score: higher = more reporter output per viable cell; viable cells, % of control: higher = more viable cells. Active means: 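Active when the median/MAD z-score for overall luciferase is greater than 3; a gene was taken forward for validation with new siRNAs if at least two of its three siRNAs passed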. Calls: active = raised luciferase; inactive = no rise.
Shown is an unselected part of about 59,000 reagents. About 1,510 of them (2.6%) were called active. 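Calls use total luciferase alone and ignore viability, so some active siRNAs may act by altering cell number.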 A number with no mark means an inactive call. The numbers tell different reagents against one gene apart. No sequences are given here.

gene,reagent no.,"total luciferase, z-score","total luciferase, % of control","luciferase per cell, z-score","viable cells, % of control"
C2orf80 (GeneID 389073),1,-2.62,29.9,-0.572,38.8
C2orf80 (GeneID 389073),2,-1.21,57.8,-0.775,79.2
C2orf80 (GeneID 389073),3,-0.389,74.1,-0.34,90.6
NCMAP (GeneID 400746),1,-1.26,56.7,-1.62,97.1
NCMAP (GeneID 400746),2,-0.537,71.2,0.969,61.6
NCMAP (GeneID 400746),3,0.614,94.1,0.158,101
IL1B (GeneID 3553),1,-0.753,66.9,-0.974,96.6
IL1B (GeneID 3553),2,0.943,101,0.974,87
IL1B (GeneID 3553),3,0.354,88.9,-0.111,102
HCN3 (GeneID 57657),1,0.217,86.2,-0.464,109
HCN3 (GeneID 57657),2,-0.894,64.1,-0.275,77
HCN3 (GeneID 57657),3,1.52,112,1.27,89.6
TST (GeneID 7263),1,-1.59,50.2,-0.781,68.9
TST (GeneID 7263),2,7.56 (active),232,4.15,87
TST (GeneID 7263),3,0.923,100,0.428,100
KRTAP12-2 (GeneID 353323),1,2.91,140,2.9,72.8
KRTAP12-2 (GeneID 353323),2,0.69,95.6,0.509,93.4
KRTAP12-2 (GeneID 353323),3,-0.191,78.1,0.169,83.5
ZNF695 (GeneID 57116),1,-2.27,36.8,-1.96,68.9
ZNF695 (GeneID 57116),2,0.205,86,-0.416,107
ZNF695 (GeneID 57116),3,0.132,84.5,-0.108,97.2
AP4B1 (GeneID 10717),1,-0.386,74.2,-0.113,85.4
AP4B1 (GeneID 10717),2,0.49,91.6,0.839,82.1
AP4B1 (GeneID 10717),3,1.58,113,1.14,93.7
SMARCD2 (GeneID 6603),1,0.274,87.3,0.241,91.6
SMARCD2 (GeneID 6603),2,-0.286,76.2,-0.592,99.5
SMARCD2 (GeneID 6603),3,-0.836,65.3,-1.18,99.4
CARMIL3 (GeneID 90668),1,-0.395,74,-0.34,90.5
CARMIL3 (GeneID 90668),2,1.19,106,0.943,92.1
CARMIL3 (GeneID 90668),3,-1.97,42.7,-1.79,76.5
PPP1R3C (GeneID 5507),1,-0.331,75.3,1.25,60.5
PPP1R3C (GeneID 5507),2,-0.0882,80.1,-0.724,108
PPP1R3C (GeneID 5507),3,-0.975,62.5,-1.51,104
GNA12 (GeneID 2768),1,1.97,121,1.6,88.8
GNA12 (GeneID 2768),2,0.444,90.7,0.379,91.7
GNA12 (GeneID 2768),3,0.663,95.1,0.522,92.6
COL1A2 (GeneID 1278),1,1.5,112,0.978,96.6
COL1A2 (GeneID 1278),2,-0.389,74.2,-0.622,97.6
COL1A2 (GeneID 1278),3,0.219,86.2,1.18,70.6
SDR16C6P (GeneID 442388),1,-0.113,79.6,-0.347,97.5
SDR16C6P (GeneID 442388),2,0.645,94.7,-0.283,114
SDR16C6P (GeneID 442388),3,-0.0194,81.5,-0.568,106
COPS4 (GeneID 51138),1,-2.73,27.6,-2.42,58.3
COPS4 (GeneID 51138),2,-0.78,66.4,-0.561,86
COPS4 (GeneID 51138),3,-0.0481,80.9,-0.331,98.7
PRKAG1 (GeneID 5571),1,-0.549,71,-1.03,104
PRKAG1 (GeneID 5571),2,-0.7,68,-0.315,82.5
PRKAG1 (GeneID 5571),3,0.835,98.5,0.302,102
POLR3K (GeneID 51728),1,0.054,83,0.159,88.9
POLR3K (GeneID 51728),2,0.174,85.3,0.0321,94.6
POLR3K (GeneID 51728),3,-0.933,63.3,-1.03,92.8
NAB2 (GeneID 4665),1,0.223,86.3,-0.631,114
NAB2 (GeneID 4665),2,-0.091,80.1,-0.51,102
NAB2 (GeneID 4665),3,-0.129,79.3,-0.292,95.7
RPS18P5 (GeneID 100131863),1,0.531,92.5,-0.189,109
RPS18P5 (GeneID 100131863),2,0.233,86.5,0.829,77.7
RPS18P5 (GeneID 100131863),3,-0.0244,81.4,0.501,79.7

Entries listed so far whose target name starts with P or p (9):
gene,reagent no.,"total luciferase, z-score","total luciferase, % of control","luciferase per cell, z-score","viable cells, % of control"
PPP1R3C (GeneID 5507),1,-0.331,75.3,1.25,60.5
PPP1R3C (GeneID 5507),2,-0.0882,80.1,-0.724,108
PPP1R3C (GeneID 5507),3,-0.975,62.5,-1.51,104
PRKAG1 (GeneID 5571),1,-0.549,71,-1.03,104
PRKAG1 (GeneID 5571),2,-0.7,68,-0.315,82.5
PRKAG1 (GeneID 5571),3,0.835,98.5,0.302,102
POLR3K (GeneID 51728),1,0.054,83,0.159,88.9
POLR3K (GeneID 51728),2,0.174,85.3,0.0321,94.6
POLR3K (GeneID 51728),3,-0.933,63.3,-1.03,92.8
